Laboratory results as given in patent US20250057859A1, “CANNABICHROMENEQUINONE AND ANALOGUES THEREOF, AND METHOD OF USING COMPOSITIONS THEREOF AS ANTI-INFLAMMATORY AGENTS” (Juva Life, Inc., priority 2021, published 2025).

System: PANC-1 pancreatic carcinoma cell line
Assay: PANC-1 cell line toxicity (Cell titer Glo viability)
Conditions: Homo sapiens, PANC-1, 72 h, read-out: IC50 cell viability
Procedure: The half maximal inhibition concentration (IC50) for each compound was determined by harvesting cells during the logarithmic growth period and then counting cell number using hemocytometer. The cell concentrations were adjusted to 5×10^4 cells/mL with respective culture medium. 30 μL of cell suspensions were added to three 384-well plates with the final cell density of 1.5×10^3 cells/well. Then, using a Biomek FX, test articles were serially diluted (10 mM top, 3× dilution intervals) along with a reference inhibitor (1 mM top, 3× dilution intervals) in acoustic grade Labcyte plate. Then, using an acoustic dispenser (Labcyte550), compounds were added as serially diluted to plate with cells: 90 nL of serially diluted compounds per well. 90 nL DMSO is added to control wells. Test plates were incubated for 72 h in the humidified incubator at 37° C. with 5% CO2. 25 μL of reconstituted Cell titer Glo reagent was added to each well. Each test plate was then incubated for 20 min at room temperature. Luminescence was then recorded using Synergy Neo2Multi-mode Reader.
In order to calculate intersect IC50, a dose-response curve was fitted using nonlinear regression model with a sigmoidal dose response.
The formula for calculating surviving rate is shown below, and the intersect IC50 was calculated according to the dose-response curve generated by the software: […]

CN[C@@H]1C[C@H]2O[C@@](C)([C@@H]1OC)n1c3ccccc3c3c4c(c5c6ccccc6n2c5c31)C(=O)NC4 [Staurosporine, staurosporine, reference compound]
IC50: ~80 nM
